Results: patent US20240254096A1, “ULTRAVIOLET AND VISIBLE RADIATION ABSORBING COMPOUNDS” (ELKIMIA INC., priority 2021, published 2024)

Assay: Color change (yellow index, ΔE) of extruded TPU fabrics after aging

**Q.** For `CCOC(=O)CNC1=C/C(=N/c2ccc(F)cc2)CC(C)(C)C1` [Formula 38], which “Yellow index after aging” value (Compound 38 content 0.56) is on record?
**A.** 9.23

**Q.** What about the Yellow index initial (Compound 38 content 0.56) of the same molecule?
**A.** −0.10

**Q.** And the ΔE after aging (Compound 38 content 0.56)?
**A.** 5.72

**Q.** What about the “ΔE/aged ref (0)” value (Compound 38 content 0.56) of the same molecule?
**A.** 0.42

**Q.** What about the “ΔE/initial ref (0)” value (Compound 38 content 0.56) of the same molecule?
**A.** 0.32

**Q.** What about the “Yellow index after aging” value (Compound 38 content 1.0) of the same molecule?
**A.** 9.7

**Q.** What about the Yellow index initial (Compound 38 content 1.0) of the same molecule?
**A.** 1.97

**Q.** And the ΔE after aging (Compound 38 content 1.0)?
**A.** 5.30

**Q.** And the “ΔE/aged ref (0)” value (Compound 38 content 1.0)?
**A.** 0.80

**Q.** And the “ΔE/initial ref (0)” value (Compound 38 content 1.0)?
**A.** 3.62

**Q.** And the “Yellow index after aging” value (Compound 38 content 2.0)?
**A.** 7.02

**Q.** And the Yellow index initial (Compound 38 content 2.0)?
**A.** 1.26

**Q.** What about the ΔE after aging (Compound 38 content 2.0) of the same molecule?
**A.** 3.54

**Q.** And the “ΔE/aged ref (0)” value (Compound 38 content 2.0)?
**A.** 0.91

**Q.** And the “ΔE/initial ref (0)” value (Compound 38 content 2.0)?
**A.** 1.21
